Data as given in PubChem BioAssay AID720710 (VTT Finland, 2013).
Purpose: 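Genes whose loss lowers DNA synthesis when an oncogene drives replication stress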 (primary screen). Cells: human U-2 OS bone cancer cells, parental and a cyclin E (CCNE1) overexpressing line. Knock-down reagent: single siRNA against human genes, 1 µM siRNA in the printed spot mix. Time to read-out: 67 h. Conditions: half the arrays: hydroxyurea 2 mM for 16 h, then 3 h recovery; other arrays untreated. Measured: 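DNA synthesis measured as imaged EdU uptake per nucleus (DAPI) at 67 h, normalised to subgrid median and given as z-score versus non-targeting controls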. Reading the numbers: EdU z-score, cyclin E line, hydroxyurea: higher = more DNA synthesis than non-targeting controls.
The whole screen tested about 1,380 reagents; shown is a random part of them. 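One array per condition without replicates; hydroxyurea arrays received 2 mM for 16 h plus 3 h recovery.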 Reagents against one gene are numbered here. Further read-outs or replicates are left out here. No sequences are given here.

EdU z-score, cyclin E line, hydroxyurea, by gene knocked down and reagent
RNF216: #1 -3.64; #2 0.0861
LOC729687: #1 -0.578; #2 -0.305
PRIM1: #1 -2.38; #2 0.16
H2BC7: #1 -0.235; #2 -0.0745
GADD45G: #1 1.69; #2 2.21
NCAPD2: #1 -0.237; #2 0.396
RAD51D: #1 -0.0859; #2 0.622
TOPBP1: #1 0.755; #2 0.805
POLK: #1 0.974; #2 2.06
RNF144B: #1 -1.99; #2 -0.756
H2BC11: #1 0.323; #2 1.68
ERCC3: #1 -2.81; #2 1.08
WDR36: #1 -1.23; #2 -0.638
BMI1: #1 0.895; #2 1.44
STAG1: #1 0.323; #2 1.09
CHD6: #1 -1.32; #2 -1.22
ZBTB1: #1 -0.919; #2 -0.132
NEIL2: #1 -1.11; #2 1.25

Taken from above.
Entry of BMI1 #1 under “EdU z-score, cyclin E line, hydroxyurea”: 0.895
For “EdU z-score, cyclin E line, hydroxyurea”, H2BC7 #2 has -0.0745
For “EdU z-score, cyclin E line, hydroxyurea”, POLK #2 has 2.06
Under “EdU z-score, cyclin E line, hydroxyurea”, LOC729687 #1 reads -0.578

Further records follow:
EdU z-score, cyclin E line, hydroxyurea, by gene knocked down and reagent
PARP4: #1 -1.41; #2 0.103
EME1: #1 -1.28; #2 1.73
AIFM1: #1 -1.2; #2 -0.207
EPC2: #1 -0.0166; #2 0.401
DDIT3: #1 -2.33; #2 -0.229
UCN: #1 -0.457; #2 0.636
MRPS9: #1 -0.611; #2 0.231
RAD1: #1 0.0397; #2 2.04
SUMO4: #1 -0.737; #2 -0.53
MRE11: #1 -2.44; #2 -0.771
PRPF19: #1 -0.0949; #2 0.407
